Sequences of proteins named here, by UniProt entry; tags and fusion partners are left off.
UniProt P34972, whole entry: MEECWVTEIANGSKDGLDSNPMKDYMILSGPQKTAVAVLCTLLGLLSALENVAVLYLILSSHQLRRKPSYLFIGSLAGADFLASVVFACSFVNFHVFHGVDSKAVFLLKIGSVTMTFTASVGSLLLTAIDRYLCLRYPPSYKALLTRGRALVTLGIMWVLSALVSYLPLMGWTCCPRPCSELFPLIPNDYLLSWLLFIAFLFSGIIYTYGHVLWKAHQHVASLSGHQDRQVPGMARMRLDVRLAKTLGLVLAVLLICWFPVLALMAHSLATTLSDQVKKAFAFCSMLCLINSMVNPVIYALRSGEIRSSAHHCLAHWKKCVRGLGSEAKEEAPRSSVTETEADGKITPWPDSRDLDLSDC

In patent US9115121B2, “1,3,5-triazine-2-amine derivatives, preparation thereof and diagnostic and therapeutic use thereof” (SANOFI, priority 2011, dated 2015):

Target: human CB2 receptors (Homo sapiens (Human), UniProt P34972)
Assay: Affinity binding test on human CB2 receptors (tritiated ligand, membranes of recombinant cell lines)
Conditions: read-out: IC50 (nM) hCB2, concentration causing 50% inhibition of specific binding of the tritiated ligand

With `COc1nc(NCCc2ccc(F)cc2)nc(-c2cccc(S(C)(=O)=O)c2)n1` the IC50 was 38 nM.

The structures given here were assigned with low confidence; some may be wrong.
